Assay results: patent US12215129B2, “Antibacterial cyclopeptides targeting acinetobacter and other gram-negative pathogens” (priority 2020, dated 2025)
Some of these results come from one statement about several compounds together. Starred links: 1 amine or outer side, 2 acyl side, 3 side chain; linkers in the order of their positions; H or OH if unused. Positions of bridges follow the written chain, without caps; N, C: chain ends. Non-standard residues stand in square brackets, D forms with d. Residues, ends and D or L forms follow the SMILES beside them. *: point of attachment. dAsp(3R-OH) = N[C@@H](C(=O)O)[C@@H](O)C(=O)O; Palmitoleoyl = CCCCCC/C=C\CCCCCCCC(=O)*; X1 = NC[C@H](O)[C@@H](N[*:1])C(=O)[*:2]; X2 = CCC(C)(O)[C@H](N[*:1])C(=O)[*:2]; d(aIle) = CC[C@H](C)[C@@H](N)C(=O)O; Myristoyl = CCCCCCCCCCCCCC(=O)*; dOrn = NCCC[C@@H](N)C(=O)O; hSer = N[C@@H](CCO)C(=O)O

How the values were obtained:
[1] = test system: Enterococcus faecalis (ATCC 29212)
[2] = test system: Staphylococcus aureus

Row | Structure (SMILES) | MIC90 [1] | MIC90 [2] | concentration up to which not bactericidal to Staphylococcus aureus [2]
1 | CCCCCCCCCCCCCC(=O)N[C@H](CCCN)C(=O)N[C@@H](CO)C(=O)N[C@H](C(=O)N[C@@H](C(=O)N[C@@H](C(=O)N[C@@H]1C(=O)NCC(=O)N[C@@H](C(C)(O)CC)C(=O)N[C@H]([C@@H](C)CC)C(=O)N[C@@H](CCO)C(=O)N[C@@H](C)C(=O)N[C@H]([C@@H](C)CC)C(=O)N[C@@H](CCC(=O)O)C(=O)O[C@@H]1C)[C@@H](O)CN)[C@@H](O)C(=O)O)C(C)C (stereo partly drawn) [Compound 1, Turnercyclamycin A] (Myristoyl-[dOrn]SV[dAsp(3R-OH)][X1]TG[X2][d(aIle)][hSer]A[d(aIle)]E; ester 6-C) | > 64 µg/mL | > 64 µg/mL | > 64 mg/mL
2 | CCCCCC/C=C\CCCCCCCC(=O)N[C@H](CCCN)C(=O)N[C@@H](CO)C(=O)N[C@H](C(=O)N[C@@H](C(=O)N[C@@H](C(=O)N[C@@H]1C(=O)NCC(=O)N[C@@H](C(C)(O)CC)C(=O)N[C@H]([C@@H](C)CC)C(=O)N[C@@H](CCO)C(=O)N[C@@H](C)C(=O)N[C@H]([C@@H](C)CC)C(=O)N[C@@H](CCC(=O)O)C(=O)O[C@@H]1C)[C@@H](O)CN)[C@@H](O)C(=O)O)C(C)C (stereo partly drawn) [Compound 2, Turnercyclamycin B] (Palmitoleoyl-[dOrn]SV[dAsp(3R-OH)][X1]TG[X2][d(aIle)][hSer]A[d(aIle)]E; ester 6-C) | > 64 µg/mL | > 64 µg/mL | > 64 mg/mL
